Test results: paper PMC6445127, “WNT5A is transported via lipoprotein particles in the cerebrospinal fluid to regulate hindbrain morphogenesis” (Nature Communications, 2019)

Target: T1, mouse V5-tagged WNT5A, secreted by TR-CSFB cells (mouse) (UniProt P22725)
T1 sequence: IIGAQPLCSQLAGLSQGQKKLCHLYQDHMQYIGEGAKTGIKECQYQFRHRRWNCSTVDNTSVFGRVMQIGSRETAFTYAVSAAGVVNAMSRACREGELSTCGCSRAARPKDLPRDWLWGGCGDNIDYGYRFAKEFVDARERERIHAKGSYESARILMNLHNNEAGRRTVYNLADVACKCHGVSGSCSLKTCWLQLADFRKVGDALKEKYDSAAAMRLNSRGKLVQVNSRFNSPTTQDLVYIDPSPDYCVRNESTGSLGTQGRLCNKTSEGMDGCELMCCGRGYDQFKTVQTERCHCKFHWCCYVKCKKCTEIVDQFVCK
Test: affinity purification with mass spectrometry; WNT5A-V5 pull-down from conditioned medium of TR-CSFB cells; on-bead trypsin digest, LC-MS/MS, search against UniProtKB mouse

| binding | Substance |
| --- | --- |
| binds | Vitamin D-binding protein |
| binds | Apolipoprotein A-I |
| binds | Apolipoprotein A-II |

No constants are given. Whether binding was seen depends on the method and setting. In cells and extracts the contact can be indirect. Here binding means that the protein was enriched with, or labelled near, the bait; the list need not be complete. Tags and fused reporters may be left off the sequences shown.
